Assay results published in PMC4179493.
Read-outs that look alike come from different tables or passages of the source. No constants are given. Whether binding was seen depends on the method and setting. In cells and extracts the contact can be indirect. Some entries that bind do so weakly or less than the wild type. For some of these results: Sequences can lack the tags named with a protein.

Amino acid sequences for entries named in this document (tags omitted).
UniProt Q8BK67: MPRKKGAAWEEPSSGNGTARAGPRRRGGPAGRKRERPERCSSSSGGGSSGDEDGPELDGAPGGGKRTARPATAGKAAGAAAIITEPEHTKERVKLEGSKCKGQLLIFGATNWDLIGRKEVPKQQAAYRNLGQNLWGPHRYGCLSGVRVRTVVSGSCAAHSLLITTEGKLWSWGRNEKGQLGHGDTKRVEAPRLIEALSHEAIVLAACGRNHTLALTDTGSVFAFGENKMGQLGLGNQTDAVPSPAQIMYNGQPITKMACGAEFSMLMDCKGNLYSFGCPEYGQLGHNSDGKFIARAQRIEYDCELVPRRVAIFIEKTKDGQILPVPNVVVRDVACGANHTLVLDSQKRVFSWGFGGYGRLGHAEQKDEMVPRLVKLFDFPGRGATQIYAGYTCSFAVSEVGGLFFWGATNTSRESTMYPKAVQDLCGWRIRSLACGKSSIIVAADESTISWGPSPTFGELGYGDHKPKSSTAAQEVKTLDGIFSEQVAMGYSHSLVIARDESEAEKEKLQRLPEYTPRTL

Columns and labels:
GFP–Coro1C = GFP–Coro1C (UniProt Q9ULV4); test: co-IP; GFP-tagged protein or GFP precipitated by GFP-Trap from transfected HEK-293T lysates; co-precipitated endogenous proteins by western blot
[1] = molecular target: endogenous RCC2 (fibroblasts or cells not named) (not stated (endogenous in fibroblasts; MEFs and human fibroblasts were cultured)) (UniProt Q8BK67); test: co-IP; endogenous proteins co-immunoprecipitated from fibroblasts
GFP–RCC2 [2] = molecular target: GFP–RCC2 (UniProt Q9P258); test: co-IP; GFP-tagged protein or GFP precipitated by GFP-Trap from transfected HEK-293T lysates; co-precipitated endogenous proteins by western blot
GFP–RCC2 [3] = molecular target: GFP–RCC2 (UniProt Q9P258); test: as above; remark: listed apart in the source

endogenous RCC2 (293T) (from UniProt Q9P258 1-522)
binding (GFP–Coro1C): binds

endogenous Coro1C (fibroblasts or cells not named) (from UniProt Q9WUM4 1-474)
binding [1]: binds

endogenous Coro1C (293T) (from UniProt Q9ULV4 1-474)
binding (GFP–RCC2 [2]): binds

B1: endogenous RhoGDI (cells expressing GFP–RCC2) (protein, UniProt P52565 1-204)
chain: MAEQEPTAEQLAQIAAENEEDEHSVNYKPPAQKSIQEIQELDKDDESLRKYKEALLGRVAVSADPNVPNVVVTGLTLVCSSAPGPLELDLTGDLESFKKQSFVLKEGVEYRIKISFRVNREIVSGMKYIQHTYRKGVKIDKTDYMVGSYGPRAEEYEFLTPVEEAPKGMLARGSYSIKSRFTDDDKTDHLSWEWNLTIKKDWKD
binding (GFP–RCC2 [3]): no binding
